Measurements from publication PMC11412891.
Results are given in words; binding and its absence hold for the method and conditions named. In cells and extracts the contact can be indirect. Some entries that bind do so weakly or less than the wild type. Where a sequence is shown, tags or fusion partners need not be part of it.

Protein sequences, listed by entry. Tags and fused reporters are not part of them.
UniProt Q13123: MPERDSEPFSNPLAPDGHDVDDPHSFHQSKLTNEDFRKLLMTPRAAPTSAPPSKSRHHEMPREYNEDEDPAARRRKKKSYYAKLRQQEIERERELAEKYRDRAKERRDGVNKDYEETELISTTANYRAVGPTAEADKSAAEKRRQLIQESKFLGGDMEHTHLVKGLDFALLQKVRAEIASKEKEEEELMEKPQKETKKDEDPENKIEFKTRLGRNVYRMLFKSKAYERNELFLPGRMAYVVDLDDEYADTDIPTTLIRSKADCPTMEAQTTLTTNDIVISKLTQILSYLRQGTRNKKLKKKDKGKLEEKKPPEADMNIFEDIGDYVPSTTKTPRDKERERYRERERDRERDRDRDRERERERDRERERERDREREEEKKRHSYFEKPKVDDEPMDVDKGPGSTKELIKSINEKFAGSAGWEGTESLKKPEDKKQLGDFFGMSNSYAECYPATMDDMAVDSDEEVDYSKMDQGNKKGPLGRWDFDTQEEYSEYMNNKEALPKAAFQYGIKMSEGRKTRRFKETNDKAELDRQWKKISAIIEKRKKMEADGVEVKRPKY
UniProt O95218: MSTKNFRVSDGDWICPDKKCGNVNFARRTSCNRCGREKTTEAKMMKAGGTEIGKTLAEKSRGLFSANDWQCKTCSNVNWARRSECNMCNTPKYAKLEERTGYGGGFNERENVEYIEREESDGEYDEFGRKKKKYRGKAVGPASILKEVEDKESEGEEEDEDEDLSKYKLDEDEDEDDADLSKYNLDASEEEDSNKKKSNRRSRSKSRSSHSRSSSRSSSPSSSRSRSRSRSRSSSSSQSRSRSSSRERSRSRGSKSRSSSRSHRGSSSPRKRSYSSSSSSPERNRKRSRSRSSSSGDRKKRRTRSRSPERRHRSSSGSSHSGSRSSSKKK
UniProt Q96T58: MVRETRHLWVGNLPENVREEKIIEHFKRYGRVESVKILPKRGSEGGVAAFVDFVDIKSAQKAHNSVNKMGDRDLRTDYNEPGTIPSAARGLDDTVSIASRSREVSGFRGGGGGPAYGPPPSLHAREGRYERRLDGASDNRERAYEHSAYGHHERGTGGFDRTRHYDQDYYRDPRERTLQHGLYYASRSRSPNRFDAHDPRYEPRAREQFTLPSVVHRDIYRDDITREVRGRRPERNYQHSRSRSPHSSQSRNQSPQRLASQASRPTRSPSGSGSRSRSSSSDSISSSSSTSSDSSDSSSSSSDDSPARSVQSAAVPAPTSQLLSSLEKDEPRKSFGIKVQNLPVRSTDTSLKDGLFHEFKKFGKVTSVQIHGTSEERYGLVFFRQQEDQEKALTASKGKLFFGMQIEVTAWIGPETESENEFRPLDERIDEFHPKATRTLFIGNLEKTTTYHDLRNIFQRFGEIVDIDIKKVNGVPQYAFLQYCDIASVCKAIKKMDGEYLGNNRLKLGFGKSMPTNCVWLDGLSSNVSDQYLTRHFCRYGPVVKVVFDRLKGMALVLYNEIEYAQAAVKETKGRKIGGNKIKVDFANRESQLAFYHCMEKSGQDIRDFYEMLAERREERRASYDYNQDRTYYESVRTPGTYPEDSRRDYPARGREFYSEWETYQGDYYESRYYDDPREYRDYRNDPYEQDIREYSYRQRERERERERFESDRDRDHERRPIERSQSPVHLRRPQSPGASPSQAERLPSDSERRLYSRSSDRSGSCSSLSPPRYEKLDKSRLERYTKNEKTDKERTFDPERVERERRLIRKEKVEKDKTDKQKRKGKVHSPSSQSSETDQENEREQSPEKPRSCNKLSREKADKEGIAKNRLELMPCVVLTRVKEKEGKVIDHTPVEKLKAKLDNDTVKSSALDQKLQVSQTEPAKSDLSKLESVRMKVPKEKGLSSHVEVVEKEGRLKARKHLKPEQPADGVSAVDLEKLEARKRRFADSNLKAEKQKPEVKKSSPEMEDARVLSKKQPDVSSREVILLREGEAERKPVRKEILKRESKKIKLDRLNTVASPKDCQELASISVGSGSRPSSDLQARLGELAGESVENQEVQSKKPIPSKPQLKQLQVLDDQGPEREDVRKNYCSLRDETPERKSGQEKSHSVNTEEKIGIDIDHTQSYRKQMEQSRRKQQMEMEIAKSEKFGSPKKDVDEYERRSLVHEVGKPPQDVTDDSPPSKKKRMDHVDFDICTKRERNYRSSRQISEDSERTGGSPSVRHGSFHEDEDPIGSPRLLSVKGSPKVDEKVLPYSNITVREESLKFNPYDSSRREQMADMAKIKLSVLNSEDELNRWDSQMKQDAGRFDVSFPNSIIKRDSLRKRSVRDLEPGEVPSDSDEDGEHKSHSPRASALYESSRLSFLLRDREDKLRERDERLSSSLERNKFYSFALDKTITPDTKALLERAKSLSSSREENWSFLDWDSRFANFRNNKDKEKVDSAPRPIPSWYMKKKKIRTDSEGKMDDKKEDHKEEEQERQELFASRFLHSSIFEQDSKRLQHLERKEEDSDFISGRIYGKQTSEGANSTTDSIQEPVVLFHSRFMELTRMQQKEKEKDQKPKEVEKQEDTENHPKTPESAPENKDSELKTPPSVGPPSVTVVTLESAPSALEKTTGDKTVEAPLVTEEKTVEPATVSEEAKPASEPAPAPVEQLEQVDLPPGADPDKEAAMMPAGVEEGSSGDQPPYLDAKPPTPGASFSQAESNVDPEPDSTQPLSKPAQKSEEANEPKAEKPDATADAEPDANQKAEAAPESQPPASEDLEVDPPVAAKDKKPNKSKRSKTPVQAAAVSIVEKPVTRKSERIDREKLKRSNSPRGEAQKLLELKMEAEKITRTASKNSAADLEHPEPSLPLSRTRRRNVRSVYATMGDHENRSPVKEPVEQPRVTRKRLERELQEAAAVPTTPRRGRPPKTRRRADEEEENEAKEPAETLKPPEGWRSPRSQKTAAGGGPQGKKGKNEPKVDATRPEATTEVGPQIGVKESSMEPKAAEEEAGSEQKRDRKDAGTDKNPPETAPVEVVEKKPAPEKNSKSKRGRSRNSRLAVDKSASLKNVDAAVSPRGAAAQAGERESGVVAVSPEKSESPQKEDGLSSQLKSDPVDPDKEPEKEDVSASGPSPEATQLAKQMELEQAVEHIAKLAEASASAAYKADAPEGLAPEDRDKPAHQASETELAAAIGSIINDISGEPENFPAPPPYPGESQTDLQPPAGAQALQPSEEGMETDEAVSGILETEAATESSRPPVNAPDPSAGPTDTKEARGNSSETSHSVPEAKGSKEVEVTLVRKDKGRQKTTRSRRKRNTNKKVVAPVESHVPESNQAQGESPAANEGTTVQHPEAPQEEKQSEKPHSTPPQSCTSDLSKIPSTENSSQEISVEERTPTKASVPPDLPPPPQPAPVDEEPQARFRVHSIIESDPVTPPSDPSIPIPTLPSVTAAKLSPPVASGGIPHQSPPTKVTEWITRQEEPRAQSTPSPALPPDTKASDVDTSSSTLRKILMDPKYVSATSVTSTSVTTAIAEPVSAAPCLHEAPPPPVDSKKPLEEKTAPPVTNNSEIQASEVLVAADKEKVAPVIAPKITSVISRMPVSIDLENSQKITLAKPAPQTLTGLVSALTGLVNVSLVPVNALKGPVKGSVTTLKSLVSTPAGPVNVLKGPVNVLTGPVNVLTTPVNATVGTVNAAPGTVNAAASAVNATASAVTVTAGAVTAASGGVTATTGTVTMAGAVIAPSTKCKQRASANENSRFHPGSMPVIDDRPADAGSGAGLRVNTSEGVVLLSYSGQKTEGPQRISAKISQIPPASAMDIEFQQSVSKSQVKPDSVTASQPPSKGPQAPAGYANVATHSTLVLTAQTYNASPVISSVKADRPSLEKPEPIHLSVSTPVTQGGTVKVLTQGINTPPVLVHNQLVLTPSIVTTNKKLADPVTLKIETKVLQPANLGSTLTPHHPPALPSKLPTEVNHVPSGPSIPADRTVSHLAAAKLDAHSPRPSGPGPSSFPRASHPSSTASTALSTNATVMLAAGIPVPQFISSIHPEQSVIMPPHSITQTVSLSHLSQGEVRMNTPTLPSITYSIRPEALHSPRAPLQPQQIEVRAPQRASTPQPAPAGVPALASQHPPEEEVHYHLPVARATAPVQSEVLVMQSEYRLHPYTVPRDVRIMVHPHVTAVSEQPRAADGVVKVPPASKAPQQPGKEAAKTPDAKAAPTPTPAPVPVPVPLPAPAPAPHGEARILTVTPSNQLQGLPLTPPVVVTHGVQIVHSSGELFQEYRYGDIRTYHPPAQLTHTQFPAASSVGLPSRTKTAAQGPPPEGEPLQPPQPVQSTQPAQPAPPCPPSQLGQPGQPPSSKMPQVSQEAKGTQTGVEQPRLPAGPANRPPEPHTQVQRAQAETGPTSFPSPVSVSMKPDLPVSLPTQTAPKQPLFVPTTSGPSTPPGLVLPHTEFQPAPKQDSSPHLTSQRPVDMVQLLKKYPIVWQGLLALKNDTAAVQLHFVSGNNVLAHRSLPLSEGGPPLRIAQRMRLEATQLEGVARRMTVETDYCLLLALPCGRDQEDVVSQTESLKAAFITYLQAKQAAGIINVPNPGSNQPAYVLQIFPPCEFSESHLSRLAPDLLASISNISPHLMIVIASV
UniProt Q13409: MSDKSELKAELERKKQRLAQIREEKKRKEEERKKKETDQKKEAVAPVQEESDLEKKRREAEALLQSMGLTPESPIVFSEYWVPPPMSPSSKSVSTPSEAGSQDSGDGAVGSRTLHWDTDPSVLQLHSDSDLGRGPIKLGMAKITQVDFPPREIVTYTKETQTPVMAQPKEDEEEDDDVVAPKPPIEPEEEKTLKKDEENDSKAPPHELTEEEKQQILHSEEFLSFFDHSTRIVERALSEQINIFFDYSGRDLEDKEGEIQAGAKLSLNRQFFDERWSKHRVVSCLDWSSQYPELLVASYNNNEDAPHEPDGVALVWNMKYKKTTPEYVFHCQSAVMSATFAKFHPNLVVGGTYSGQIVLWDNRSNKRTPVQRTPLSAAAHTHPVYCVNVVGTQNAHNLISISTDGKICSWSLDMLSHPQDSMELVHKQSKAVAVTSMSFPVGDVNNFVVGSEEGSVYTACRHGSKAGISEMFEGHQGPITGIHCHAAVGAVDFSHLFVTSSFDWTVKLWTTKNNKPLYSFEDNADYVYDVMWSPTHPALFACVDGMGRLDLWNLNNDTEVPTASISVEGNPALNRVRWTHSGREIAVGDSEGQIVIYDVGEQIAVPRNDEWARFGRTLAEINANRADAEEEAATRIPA
UniProt Q9Y5U2: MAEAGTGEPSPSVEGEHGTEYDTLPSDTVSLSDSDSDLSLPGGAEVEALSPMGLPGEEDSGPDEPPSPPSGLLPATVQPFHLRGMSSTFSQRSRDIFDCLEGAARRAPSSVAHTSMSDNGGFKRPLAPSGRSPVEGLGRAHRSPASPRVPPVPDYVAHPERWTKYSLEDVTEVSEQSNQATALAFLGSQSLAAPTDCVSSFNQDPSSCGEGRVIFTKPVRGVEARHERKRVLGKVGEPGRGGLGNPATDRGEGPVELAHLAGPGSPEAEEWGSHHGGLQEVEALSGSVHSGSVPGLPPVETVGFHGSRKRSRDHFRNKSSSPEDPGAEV

Target: T1, CD2 Binding Protein 2 (CD2BP2/U5-52K), FLAG-tagged (human) (UniProt O95400)
T1 sequence: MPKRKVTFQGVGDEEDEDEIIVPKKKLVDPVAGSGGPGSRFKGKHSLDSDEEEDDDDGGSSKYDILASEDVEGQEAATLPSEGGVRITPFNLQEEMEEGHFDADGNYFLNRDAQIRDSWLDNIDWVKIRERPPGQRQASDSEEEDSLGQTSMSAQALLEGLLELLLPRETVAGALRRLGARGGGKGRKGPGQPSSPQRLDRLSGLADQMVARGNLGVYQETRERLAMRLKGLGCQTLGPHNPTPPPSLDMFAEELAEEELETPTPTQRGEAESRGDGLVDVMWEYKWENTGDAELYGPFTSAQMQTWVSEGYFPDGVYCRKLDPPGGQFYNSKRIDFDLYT
Assay: cross-linking; anti-FLAG IP of CD2BP2-FLAG from HEK293T CD2BP2-/- lysate (~100 mg protein), on-bead crosslinking with DSSO, tryptic digest, LC-MS2-MS3, XlinkX, 1 % FDR; two technical and two biological replicates

binding, binds:
IK - RED (from UniProt Q13123 1-557)
ZRANB2 (from UniProt O95218 1-330)
SPEN (from UniProt Q96T58 1-3664)
DYNC1I2 (from UniProt Q13409 1-638)
Brr2 - SNRNP200 (from UniProt O75643 1-2136)
TSSC4 (from UniProt Q9Y5U2 1-329)
